For 38 targets, log2 fold change results are on record in the supplement of paper PMC10849652.

Sequences of proteins named here, by UniProt entry; tags and fusion partners are left off. A change or cut given only in a name is not applied to a line headed by its entry.
UniProt P10620: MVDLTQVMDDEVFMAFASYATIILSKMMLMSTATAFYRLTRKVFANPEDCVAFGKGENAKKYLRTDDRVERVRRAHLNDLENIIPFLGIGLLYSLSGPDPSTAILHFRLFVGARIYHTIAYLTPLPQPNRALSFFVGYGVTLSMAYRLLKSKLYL
UniProt Q9BUB5: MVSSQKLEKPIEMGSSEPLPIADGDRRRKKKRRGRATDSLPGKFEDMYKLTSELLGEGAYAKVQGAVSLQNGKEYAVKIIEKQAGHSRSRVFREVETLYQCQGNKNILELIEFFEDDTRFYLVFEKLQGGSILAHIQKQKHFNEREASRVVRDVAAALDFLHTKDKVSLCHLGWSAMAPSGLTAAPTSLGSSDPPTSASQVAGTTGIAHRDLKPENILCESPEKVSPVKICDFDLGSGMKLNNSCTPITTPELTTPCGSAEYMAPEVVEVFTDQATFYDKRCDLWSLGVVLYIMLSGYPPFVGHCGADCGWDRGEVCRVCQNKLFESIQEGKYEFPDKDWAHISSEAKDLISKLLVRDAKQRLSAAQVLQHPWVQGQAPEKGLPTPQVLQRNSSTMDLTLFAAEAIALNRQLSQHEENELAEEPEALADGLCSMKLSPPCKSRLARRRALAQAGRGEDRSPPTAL
UniProt A9UHW6: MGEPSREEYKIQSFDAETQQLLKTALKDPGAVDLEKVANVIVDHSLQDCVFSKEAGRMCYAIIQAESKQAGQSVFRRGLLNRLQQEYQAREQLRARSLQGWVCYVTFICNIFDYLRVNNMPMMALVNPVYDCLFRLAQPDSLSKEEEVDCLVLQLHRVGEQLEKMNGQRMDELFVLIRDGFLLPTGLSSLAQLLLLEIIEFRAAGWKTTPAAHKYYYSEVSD
UniProt Q9NV56, whole entry, looked up: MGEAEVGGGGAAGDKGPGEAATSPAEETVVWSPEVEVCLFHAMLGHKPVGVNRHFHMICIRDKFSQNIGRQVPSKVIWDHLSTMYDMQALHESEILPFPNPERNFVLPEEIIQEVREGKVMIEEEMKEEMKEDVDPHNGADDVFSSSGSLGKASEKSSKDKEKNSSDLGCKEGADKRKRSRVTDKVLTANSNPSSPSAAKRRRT
UniProt Q9BU76: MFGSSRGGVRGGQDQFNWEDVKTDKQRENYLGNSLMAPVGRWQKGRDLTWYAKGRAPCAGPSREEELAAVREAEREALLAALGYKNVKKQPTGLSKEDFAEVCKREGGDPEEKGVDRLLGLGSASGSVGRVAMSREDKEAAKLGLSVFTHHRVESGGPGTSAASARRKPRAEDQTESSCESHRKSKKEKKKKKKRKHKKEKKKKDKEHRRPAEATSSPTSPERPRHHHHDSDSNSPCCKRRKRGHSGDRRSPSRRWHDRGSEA
UniProt Q5TGZ0: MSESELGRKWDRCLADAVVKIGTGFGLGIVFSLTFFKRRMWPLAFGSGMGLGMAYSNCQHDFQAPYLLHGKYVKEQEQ
UniProt Q9UHC7: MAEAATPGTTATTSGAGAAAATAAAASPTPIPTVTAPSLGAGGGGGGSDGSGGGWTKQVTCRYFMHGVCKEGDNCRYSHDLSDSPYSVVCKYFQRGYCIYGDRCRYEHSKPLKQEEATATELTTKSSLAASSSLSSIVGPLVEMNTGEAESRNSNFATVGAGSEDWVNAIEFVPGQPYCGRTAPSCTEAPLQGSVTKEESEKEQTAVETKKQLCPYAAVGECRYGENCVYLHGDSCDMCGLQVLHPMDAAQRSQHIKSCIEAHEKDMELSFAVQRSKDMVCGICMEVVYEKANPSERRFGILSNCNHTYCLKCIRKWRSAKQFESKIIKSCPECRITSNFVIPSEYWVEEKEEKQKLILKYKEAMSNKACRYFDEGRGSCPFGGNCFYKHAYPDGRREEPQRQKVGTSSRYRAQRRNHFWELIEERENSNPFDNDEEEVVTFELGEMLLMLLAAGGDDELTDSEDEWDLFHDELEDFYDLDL
UniProt Q8N3F8: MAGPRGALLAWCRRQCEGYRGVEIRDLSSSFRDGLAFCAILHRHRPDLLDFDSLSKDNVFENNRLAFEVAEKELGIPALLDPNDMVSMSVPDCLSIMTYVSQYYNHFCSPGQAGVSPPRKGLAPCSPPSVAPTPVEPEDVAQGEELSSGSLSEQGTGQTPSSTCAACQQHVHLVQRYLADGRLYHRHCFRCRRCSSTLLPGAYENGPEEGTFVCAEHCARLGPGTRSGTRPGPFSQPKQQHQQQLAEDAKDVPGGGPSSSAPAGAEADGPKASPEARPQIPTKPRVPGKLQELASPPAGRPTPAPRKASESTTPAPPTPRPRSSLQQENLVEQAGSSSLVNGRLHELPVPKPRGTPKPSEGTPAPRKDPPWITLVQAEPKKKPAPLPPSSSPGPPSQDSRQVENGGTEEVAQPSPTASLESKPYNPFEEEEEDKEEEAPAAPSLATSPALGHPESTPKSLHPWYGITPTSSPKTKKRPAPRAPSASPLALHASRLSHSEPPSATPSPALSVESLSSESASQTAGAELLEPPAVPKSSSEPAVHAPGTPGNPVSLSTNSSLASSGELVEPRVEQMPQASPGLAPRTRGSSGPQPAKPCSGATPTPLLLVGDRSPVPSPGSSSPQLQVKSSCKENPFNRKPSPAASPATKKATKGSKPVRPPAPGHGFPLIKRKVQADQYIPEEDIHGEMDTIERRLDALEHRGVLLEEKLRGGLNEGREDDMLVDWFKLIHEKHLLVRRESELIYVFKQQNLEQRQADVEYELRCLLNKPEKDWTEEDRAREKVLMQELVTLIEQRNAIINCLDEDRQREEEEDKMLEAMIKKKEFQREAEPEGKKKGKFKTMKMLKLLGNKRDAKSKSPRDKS
UniProt Q8IY33: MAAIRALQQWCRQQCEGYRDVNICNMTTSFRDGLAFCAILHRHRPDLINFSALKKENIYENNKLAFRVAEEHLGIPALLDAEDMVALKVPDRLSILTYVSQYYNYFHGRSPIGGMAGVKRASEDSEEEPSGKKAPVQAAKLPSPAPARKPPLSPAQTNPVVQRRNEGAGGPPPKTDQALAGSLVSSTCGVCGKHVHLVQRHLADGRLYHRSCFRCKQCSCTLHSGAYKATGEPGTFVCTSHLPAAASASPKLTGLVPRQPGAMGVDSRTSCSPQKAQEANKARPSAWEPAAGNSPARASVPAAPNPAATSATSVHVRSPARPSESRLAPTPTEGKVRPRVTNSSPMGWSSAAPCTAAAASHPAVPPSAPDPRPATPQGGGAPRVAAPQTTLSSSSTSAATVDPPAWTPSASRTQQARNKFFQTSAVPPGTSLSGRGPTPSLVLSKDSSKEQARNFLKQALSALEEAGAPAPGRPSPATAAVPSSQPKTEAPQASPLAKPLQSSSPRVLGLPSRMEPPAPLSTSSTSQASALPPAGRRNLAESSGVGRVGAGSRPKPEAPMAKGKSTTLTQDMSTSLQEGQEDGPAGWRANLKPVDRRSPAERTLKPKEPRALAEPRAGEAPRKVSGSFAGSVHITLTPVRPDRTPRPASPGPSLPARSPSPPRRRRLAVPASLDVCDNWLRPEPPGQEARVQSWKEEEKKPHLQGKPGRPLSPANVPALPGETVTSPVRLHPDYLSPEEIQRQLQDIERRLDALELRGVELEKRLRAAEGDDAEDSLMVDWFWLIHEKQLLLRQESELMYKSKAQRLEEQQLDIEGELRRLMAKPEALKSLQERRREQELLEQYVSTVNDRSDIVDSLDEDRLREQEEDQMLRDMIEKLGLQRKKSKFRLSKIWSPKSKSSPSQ
UniProt Q00013: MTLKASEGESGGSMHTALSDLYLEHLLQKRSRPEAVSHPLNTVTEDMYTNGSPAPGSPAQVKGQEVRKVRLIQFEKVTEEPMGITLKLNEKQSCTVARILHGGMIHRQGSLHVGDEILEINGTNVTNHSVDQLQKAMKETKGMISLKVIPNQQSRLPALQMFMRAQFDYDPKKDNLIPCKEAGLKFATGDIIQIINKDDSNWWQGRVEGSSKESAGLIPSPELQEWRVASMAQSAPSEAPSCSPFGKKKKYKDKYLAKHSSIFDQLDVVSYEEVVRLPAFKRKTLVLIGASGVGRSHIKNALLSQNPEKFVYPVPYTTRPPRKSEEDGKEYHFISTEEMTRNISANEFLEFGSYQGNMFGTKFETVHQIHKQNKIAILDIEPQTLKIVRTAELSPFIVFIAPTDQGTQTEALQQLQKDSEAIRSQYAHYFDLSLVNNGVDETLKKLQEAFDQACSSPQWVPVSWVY
UniProt Q9Y6X9: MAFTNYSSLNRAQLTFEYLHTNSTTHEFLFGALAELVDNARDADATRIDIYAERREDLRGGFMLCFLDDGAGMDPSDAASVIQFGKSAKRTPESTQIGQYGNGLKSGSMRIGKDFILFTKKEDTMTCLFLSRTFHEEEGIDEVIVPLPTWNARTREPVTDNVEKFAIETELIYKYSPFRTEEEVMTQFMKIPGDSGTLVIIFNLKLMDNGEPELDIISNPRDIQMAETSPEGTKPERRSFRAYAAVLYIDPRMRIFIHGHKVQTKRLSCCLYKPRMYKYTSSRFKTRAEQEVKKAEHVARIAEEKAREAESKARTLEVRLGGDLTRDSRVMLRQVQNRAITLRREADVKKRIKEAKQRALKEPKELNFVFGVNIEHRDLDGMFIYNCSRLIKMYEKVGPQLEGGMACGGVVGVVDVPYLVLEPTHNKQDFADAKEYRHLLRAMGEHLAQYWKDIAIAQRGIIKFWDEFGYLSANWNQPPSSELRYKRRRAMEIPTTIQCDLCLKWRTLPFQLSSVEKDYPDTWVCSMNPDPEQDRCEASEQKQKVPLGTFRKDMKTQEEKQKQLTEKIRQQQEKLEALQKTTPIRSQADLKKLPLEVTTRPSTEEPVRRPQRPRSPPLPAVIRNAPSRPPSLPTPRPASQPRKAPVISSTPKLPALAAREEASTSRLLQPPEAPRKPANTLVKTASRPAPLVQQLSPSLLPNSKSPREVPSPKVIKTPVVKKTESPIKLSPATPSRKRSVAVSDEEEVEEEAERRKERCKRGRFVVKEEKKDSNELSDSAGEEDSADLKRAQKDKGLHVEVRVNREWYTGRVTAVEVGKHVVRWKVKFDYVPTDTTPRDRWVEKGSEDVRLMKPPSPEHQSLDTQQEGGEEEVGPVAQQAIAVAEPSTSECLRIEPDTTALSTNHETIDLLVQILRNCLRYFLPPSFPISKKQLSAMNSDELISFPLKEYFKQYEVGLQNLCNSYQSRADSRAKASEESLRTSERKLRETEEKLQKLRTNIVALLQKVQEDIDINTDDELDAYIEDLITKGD
UniProt Q96EY8: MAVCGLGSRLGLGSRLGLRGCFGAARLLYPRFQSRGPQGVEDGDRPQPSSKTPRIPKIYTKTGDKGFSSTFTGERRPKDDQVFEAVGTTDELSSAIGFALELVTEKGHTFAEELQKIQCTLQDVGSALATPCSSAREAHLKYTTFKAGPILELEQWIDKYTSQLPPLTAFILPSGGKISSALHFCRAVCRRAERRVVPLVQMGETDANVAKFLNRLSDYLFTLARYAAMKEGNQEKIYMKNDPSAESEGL
UniProt Q15014, whole entry, looked up: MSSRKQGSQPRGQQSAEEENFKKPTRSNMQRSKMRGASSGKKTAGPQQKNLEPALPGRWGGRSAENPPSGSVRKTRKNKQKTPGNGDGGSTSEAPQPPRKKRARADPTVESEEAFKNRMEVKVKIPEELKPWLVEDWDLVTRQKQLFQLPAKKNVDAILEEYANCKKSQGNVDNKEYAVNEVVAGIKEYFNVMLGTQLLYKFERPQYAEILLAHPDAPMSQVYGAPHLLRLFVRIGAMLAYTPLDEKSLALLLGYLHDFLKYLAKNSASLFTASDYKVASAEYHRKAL
UniProt Q9HAP2: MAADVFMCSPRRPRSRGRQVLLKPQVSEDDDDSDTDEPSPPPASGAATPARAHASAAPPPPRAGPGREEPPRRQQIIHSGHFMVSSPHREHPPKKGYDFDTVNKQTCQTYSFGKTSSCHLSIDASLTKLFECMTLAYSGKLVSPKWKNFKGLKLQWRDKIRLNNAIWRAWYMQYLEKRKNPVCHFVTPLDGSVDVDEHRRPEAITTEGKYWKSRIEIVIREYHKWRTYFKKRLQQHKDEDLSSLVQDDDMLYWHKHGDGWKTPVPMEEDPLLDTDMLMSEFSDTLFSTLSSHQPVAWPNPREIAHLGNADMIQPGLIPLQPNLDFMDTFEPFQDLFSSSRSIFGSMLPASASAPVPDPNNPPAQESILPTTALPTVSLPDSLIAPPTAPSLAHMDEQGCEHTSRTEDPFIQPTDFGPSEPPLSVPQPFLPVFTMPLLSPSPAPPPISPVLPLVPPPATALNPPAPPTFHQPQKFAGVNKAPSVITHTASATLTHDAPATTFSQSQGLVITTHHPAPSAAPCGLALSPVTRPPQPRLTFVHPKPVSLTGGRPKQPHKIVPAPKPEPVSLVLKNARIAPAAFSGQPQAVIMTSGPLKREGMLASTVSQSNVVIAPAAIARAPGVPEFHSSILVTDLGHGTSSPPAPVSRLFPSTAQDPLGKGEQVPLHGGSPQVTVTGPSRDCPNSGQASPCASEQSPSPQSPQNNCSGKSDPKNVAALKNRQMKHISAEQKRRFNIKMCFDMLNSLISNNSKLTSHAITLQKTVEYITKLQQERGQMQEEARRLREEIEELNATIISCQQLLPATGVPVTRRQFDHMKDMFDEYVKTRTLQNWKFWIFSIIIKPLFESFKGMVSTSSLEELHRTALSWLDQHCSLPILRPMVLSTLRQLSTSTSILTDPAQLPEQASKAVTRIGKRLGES

Some of the results follow.

Compound in one assay: CCCS(=O)(=O)Nc1ccc(F)c(C(=O)c2c[nH]c3ncc(Cl)cc23)c1F
The experiment in a line: log2 fold change, soluble protein after heating vs DMSO (PISA); higher = thermal stabilisation; K562 lysate, 10 uM; active = over 0.2 and 3.5 SD of the protein, either way, in both replicates (recomputed). In outline:
(§1)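 Following dounce homogenisation of K562 pellets in PBS pH 7.4 with 1 mM MgCl2, crude extract at 1 mg/mL protein was incubated for 30 min with 10 μM compound. Aliquots were then heated for 3 min over 48°C-58°C and pooled, NP-40 was added to 0.5% at 4°C, and soluble protein was recovered as the supernatant at 21,000xg for 90 min. Channel-sum-equalised TMTpro 16plex LC-MS/MS quantified this protein. Each value, from duplicates, is a log-two fold change in thermal stability relative to solvent controls.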
Turning to MGST1 (UniProt P10620), the log2 fold change is inactive: 0.018.
For the target MRI1 (UniProt Q9BV20), the log2 fold change is inactive: 0.02.
Regarding MOB4 (UniProt Q9Y3A3), the log2 fold change was inactive: 0.049.
Same read-out and setting: then MKNK1 (UniProt Q9BUB5), with inactive: 0.006; and MIF4GD isoform 3 (UniProt A9UHW6), with inactive: 0.009; and MRPL1 (UniProt Q9BYD6), with inactive: 0.033.
Still for that read-out and setting: for MLX (UniProt Q9UH92) the value was inactive: -0.059; for MPI (UniProt P34949), inactive: 0.007.
On the same count and under the same terms, for MRGBP (UniProt Q9NV56) the value was inactive: 0.035; for MMTAG2 (UniProt Q9BU76), inactive: -0.004; for MPZL1 (UniProt O95297), inactive: 0.001.
On to MRPL23 (UniProt Q16540), for which the log2 fold change is inactive: 0.046.
On the same count and under the same terms, for MPST isoform 2 (UniProt P25325) the value was inactive: 0; for MRPL15 (UniProt Q9P015), inactive: 0.025.
Still for that read-out and setting: then MICOS10 (UniProt Q5TGZ0), with inactive: -0.089.
Still for that read-out and setting: then MIA2 (UniProt Q96PC5), with inactive: -0.013; and MKI67 (UniProt P46013), with inactive: 0.015; and MKRN1 (UniProt Q9UHC7), with inactive: 0.009.
With MRPL14 (UniProt Q6P1L8), the log2 fold change was inactive: -0.033.
As for MICALL1 (UniProt Q8N3F8), the log2 fold change was inactive: 0.041.
Same read-out and setting: for MICALL2 (UniProt Q8IY33) the value was inactive: -0.007.
On the same count and under the same terms, then MINDY3 (UniProt Q9H8M7), with inactive: 0.009; and MPP1 (UniProt Q00013), with inactive: -0.005.
Same read-out and setting: then MON2 isoform 5 (UniProt Q7Z3U7), with inactive: 0.025; and MORF4L1 isoform 2 (UniProt Q9UBU8), with inactive: -0.017; and MPC2 (UniProt O95563), with inactive: -0.001.
In the case of MIOS (UniProt Q9NXC5), the log2 fold change was inactive: -0.002.
The same measure, in the same setting: for MKRN2 (UniProt Q9H000) the value was inactive: -0.008; for MMUT (UniProt P22033), inactive: 0.01.
The same measure, in the same setting: for MORC2 (UniProt Q9Y6X9) the value was inactive: 0.01; for MMAB (UniProt Q96EY8), inactive: -0.034; for MRPL19 (UniProt P49406), inactive: 0.029.
Still for that read-out and setting: for MRM3 (UniProt Q9HC36) the value was inactive: -0.05; for MORF4L2 (UniProt Q15014), inactive: 0.018; for MLXIP (UniProt Q9HAP2), inactive: 0.013.
Turning to MGST3 (UniProt O14880), the log2 fold change was inactive: 0.01.
The same measure, in the same setting: then MINPP1 (UniProt Q9UNW1), with inactive: -0.009; and MOV10 (UniProt Q9HCE1), with inactive: 0.01.

Compound in another assay: CCN(CCCOc1ccc2c(Nc3cc(CC(=O)Nc4cccc(F)c4)[nH]n3)ncnc2c1)CCOP(=O)(O)O [barasertib]
The assay is described as above. A digest of the protocol:
as §1
As to MGST1 (UniProt P10620), the log2 fold change is inactive: 0.027.
Same read-out and setting: for MRI1 (UniProt Q9BV20) the value was inactive: 0.018; for MOB4 (UniProt Q9Y3A3), inactive: -0.012.
Same read-out and setting: then MKNK1 (UniProt Q9BUB5), with inactive: -0.018.
Same read-out and setting: then MIF4GD isoform 3 (UniProt A9UHW6), with inactive: 0.051; and MRPL1 (UniProt Q9BYD6), with inactive: 0.02; and MLX (UniProt Q9UH92), with inactive: 0.3.
On to MPI (UniProt P34949), for which the log2 fold change is inactive: 0.008.
The same measure, in the same setting: for MRGBP (UniProt Q9NV56) the value was inactive: 0.067.
The same measure, in the same setting: then MMTAG2 (UniProt Q9BU76), with inactive: 0.019; and MPZL1 (UniProt O95297), with inactive: 0.024; and MRPL23 (UniProt Q16540), with inactive: 0.065.
Still for that read-out and setting: for MPST isoform 2 (UniProt P25325) the value was inactive: 0.05; for MRPL15 (UniProt Q9P015), inactive: -0.04; for MICOS10 (UniProt Q5TGZ0), inactive: 0.118.
Take MIA2 (UniProt Q96PC5): the log2 fold change is inactive: 0.029.
Still for that read-out and setting: then MKI67 (UniProt P46013), with inactive: -0.012; and MKRN1 (UniProt Q9UHC7), with inactive: 0.058.
On the same count and under the same terms, for MRPL14 (UniProt Q6P1L8) the value was inactive: 0.071; for MICALL1 (UniProt Q8N3F8), inactive: 0.007; for MICALL2 (UniProt Q8IY33), inactive: -0.001.
Regarding MINDY3 (UniProt Q9H8M7), the log2 fold change is inactive: 0.016.
Same read-out and setting: for MPP1 (UniProt Q00013) the value was inactive: -0.014.
Same read-out and setting: for MON2 isoform 5 (UniProt Q7Z3U7) the value was inactive: 0.008; for MORF4L1 isoform 2 (UniProt Q9UBU8), inactive: 0.007.
The same measure, in the same setting: then MPC2 (UniProt O95563), with inactive: -0.003; and MIOS (UniProt Q9NXC5), with inactive: 0.013.
Turning to MKRN2 (UniProt Q9H000), the log2 fold change is inactive: 0.022.
On the same count and under the same terms, for MMUT (UniProt P22033) the value was inactive: 0.008; for MORC2 (UniProt Q9Y6X9), inactive: 0.054.
The same measure, in the same setting: then MMAB (UniProt Q96EY8), with inactive: 0.011; and MRPL19 (UniProt P49406), with inactive: 0.001; and MRM3 (UniProt Q9HC36), with inactive: 0.
The same measure, in the same setting: for MORF4L2 (UniProt Q15014) the value was inactive: -0.043.
For MLXIP (UniProt Q9HAP2), the log2 fold change was inactive: 0.019.
On the same count and under the same terms, for MGST3 (UniProt O14880) the value was inactive: -0.056; for MINPP1 (UniProt Q9UNW1), inactive: -0.017.
Same read-out and setting: for MOV10 (UniProt Q9HCE1) the value was inactive: -0.005.
